Measured values: PubChem BioAssay AID1487 (National Center for Advancing Translational Sciences (NCATS), 2009)
Some of the results follow. The main result of the screen is listed elsewhere. These columns were measured beside it and carry no call. Compounds called inactive in the main read-out are mostly missing here. The note in brackets gives the kind of curve behind each potency; many fits are weak.

Experiment: qHTS Assay for Modulators of Lamin A Splicing
Settings: HeLa LMNA splicing GFP/RFP minigene ratio, 48 h
Outline: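 S3 HeLa stable clones carrying a lamin A-EGFP splicing minigene plus DsRed2 were seeded at 600 cells/well in Opti-MEM with 2% FBS, pin-dosed and incubated 48 h at 37°C. Acumen cytometry (488 nm) gave the GFP/RFP total-intensity ratio.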

[1] = measured here: GFP splicing reporter channel
[2] = measured here: RFP viability control channel

Compound	AC50 [1]	AC50 [2]
COc1ccc(OC)c(NC(=O)C2C3CCC(O3)C2C(=O)O)c1 (centres undefined)	0.0891 µM [falling, partial curve, poor fit]	0.355 µM [falling, partial curve, poor fit]
O=C(CNC(=O)c1cccc(F)c1)N/N=C/c1cc(Br)ccc1OCc1ccccc1	–	15.8 µM [rising, single point]
Cc1cccc(C)c1OCCCCc1c(C)n[nH]c1C	12.6 µM [rising, partial curve]	15.8 µM [rising, single point]
CC(C)CNC(=O)CN(c1cccc(Cl)c1)S(C)(=O)=O	0.00398 µM [rising, full curve, poor fit]	–
CSc1nsc(/C=C/Nc2cccc(Cl)c2)c1C#N	25.1 µM [rising, single point]	35.5 µM [rising, single point]
Cc1cc(C)nc(SCNC(=O)c2ccc(F)cc2)n1	35.5 µM [falling, single point]	31.6 µM [falling, single point]
CCOC(=O)C1=C(C)NC(=O)NC1c1ccc(OC)c(CN2CCOCC2)c1 (centres undefined)	–	10 µM [rising, single point]
O=C(c1cccc(S(=O)(=O)N2CCc3ccccc3C2)c1)N1CCN(c2ccccc2)CC1	11.2 µM [rising, partial curve]	15.8 µM [rising, partial curve]
CCOc1ccc(C2=NNC(c3cccs3)=Nc3ccc(OC)cc32)cc1OCC	–	12.6 µM [rising, single point]
CC(C)(C)NC(=O)N1CCC(C(=O)O)CC1	–	7.94 µM [falling, partial curve, poor fit]
CCCC(=O)Nc1c(C(=O)OCC)oc2ccccc12	–	0.141 µM [falling, partial curve, poor fit]
COc1ccc(OC)c(C2C=C(c3ccc(C)c(C)c3)Nc3nnnn32)c1 (centres undefined)	–	1 µM [rising, partial curve]
C[C@@H]1CC[C@H]2C(=O)N3[C@@H](CC[C@@H](C)[C@@H]3c3ccc(Br)cc3)C(=O)N2[C@H]1c1ccc(Br)cc1	–	12.6 µM [rising, partial curve]
O=C1NCCc2c1[nH]c1ccc([N+](=O)[O-])cc21	–	0.1 µM [falling, full curve, poor fit]
COc1ccccc1CNC(=O)CCC1N=C2c3ccccc3N=C(SCc3ccc(Cl)cc3)N2C1=O (centres undefined)	–	0.02 µM [falling, full curve, poor fit]
Cc1cccc(Oc2nc(-c3ccccn3)nc3ccccc23)c1	–	15.8 µM [rising, single point]
Cc1cccc(C(=O)NNC(=O)c2cc3cc4ccccc4nc3s2)c1	14.1 µM [falling, single point]	22.4 µM [falling, single point]
O=C(N1CCN(Cc2ccccc2)CC1)C(Cl)(Cl)Cl	–	15.8 µM [rising, single point]

Compound	AC50 [1]	AC50 [2]
O=[N+]([O-])c1ccc(CSc2nc3ccccc3o2)cc1	0.355 µM [rising, single point]	35.5 µM [rising, single point]
CC(C)Cc1nc2ccccc2n1CCc1ccccc1	12.6 µM [rising, single point]	35.5 µM [rising, single point]
Cc1cnc(C(=O)N2CCCC(C(=O)c3ccc(Cl)cc3C)C2)cn1 (centres undefined)	0.355 µM [falling, full curve, poor fit]	11.2 µM [falling, partial curve, poor fit]
O=C(CCC(=O)Nc1ccc(Cl)cc1Cl)N/N=C/c1ccc([N+](=O)[O-])o1	3.16 µM [rising, single point]	–
COc1ccccc1-c1nnc(Nc2nc3c(OC)cccc3s2)o1	–	0.178 µM [rising, full curve, poor fit]
CC1(C)C(=O)N(CC(=O)Nc2ccc(Cl)cc2)c2ccccc21	0.0251 µM [falling, full curve, poor fit]	0.0447 µM [falling, full curve, poor fit]
O=C(Nc1cccc(C(=O)O)c1)Nc1ccccc1Cl	2 µM [falling, partial curve, poor fit]	0.112 µM [falling, full curve, poor fit]
CN(c1ccccc1)S(=O)(=O)c1ccc(NC(=S)NC(=O)c2ccccc2)cc1	20 µM [rising, partial curve, poor fit]	14.1 µM [rising, single point]
CCC(CO)[n+]1c(C)cc(/C=C2\Sc3ccccc3N2Cc2ccccc2)cc1C (centres undefined)	–	14.1 µM [rising, partial curve, poor fit]
COC(=O)/C=C1\OC(c2ccccc2)=CC1=O	–	12.6 µM [rising, single point]
Cc1cc(C(=O)N/N=C2\CC(=O)CC(C)(C)C2)c(C)n1-c1ccc(F)cc1	–	14.1 µM [rising, single point]
O=C(NCc1ccc2c(c1)OCO2)c1cc(-c2ccccn2)nc2ccccc12	11.2 µM [falling, partial curve, poor fit]	–
O=C(c1ccco1)N(Cc1cccnc1)c1nc2ccc(F)cc2s1	0.00355 µM [falling, full curve, poor fit]	0.00891 µM [falling, full curve, poor fit]
CCN(CC)c1ccc2c(Cl)c(Br)c(=O)oc2c1	–	35.5 µM [falling, single point]
Cc1nn(C(=O)C2CC2)c(C)c1Sc1ccc(Cl)cc1	–	12.6 µM [rising, single point]
Cc1ccnc(NC(=O)c2ccc(Cl)c(NC(=O)C(C)Oc3ccccc3)c2)c1 (centres undefined)	–	0.00224 µM [falling, full curve, poor fit]
O=C(Nc1ccc2c(c1)CCC2)C1CCN(c2c3c(nc4ncnn24)CCC3)CC1	2 µM [rising, full curve]	7.94 µM [rising, partial curve]

Entries of single compounds from above. Values in the order: AC50 [1] | AC50 [2]
Cc1cc(C(=O)N/N=C2\CC(=O)CC(C)(C)C2)c(C)n1-c1ccc(F)cc1 as listed: – | 14.1 µM [rising, single point]
CCN(CC)c1ccc2c(Cl)c(Br)c(=O)oc2c1 as listed: – | 35.5 µM [falling, single point]
